Drawing on paper PMC12463075, this text covers binding for two substances.

Sequences of proteins named here, by UniProt entry; tags and fusion partners are left off.
UniProt P43490: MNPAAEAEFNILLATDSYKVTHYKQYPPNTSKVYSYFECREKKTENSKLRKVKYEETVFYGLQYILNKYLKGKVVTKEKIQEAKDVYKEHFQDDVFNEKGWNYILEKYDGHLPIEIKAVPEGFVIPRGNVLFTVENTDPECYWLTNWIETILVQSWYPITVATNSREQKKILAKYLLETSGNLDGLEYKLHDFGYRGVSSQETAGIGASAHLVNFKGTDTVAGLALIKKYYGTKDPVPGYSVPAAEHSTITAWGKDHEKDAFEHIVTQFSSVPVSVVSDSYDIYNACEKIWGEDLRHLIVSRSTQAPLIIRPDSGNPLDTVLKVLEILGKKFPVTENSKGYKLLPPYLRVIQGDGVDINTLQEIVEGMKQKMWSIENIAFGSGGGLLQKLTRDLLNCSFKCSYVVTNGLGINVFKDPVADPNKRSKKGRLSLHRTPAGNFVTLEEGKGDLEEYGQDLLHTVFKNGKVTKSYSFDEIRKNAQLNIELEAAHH
UniProt Q99KQ4: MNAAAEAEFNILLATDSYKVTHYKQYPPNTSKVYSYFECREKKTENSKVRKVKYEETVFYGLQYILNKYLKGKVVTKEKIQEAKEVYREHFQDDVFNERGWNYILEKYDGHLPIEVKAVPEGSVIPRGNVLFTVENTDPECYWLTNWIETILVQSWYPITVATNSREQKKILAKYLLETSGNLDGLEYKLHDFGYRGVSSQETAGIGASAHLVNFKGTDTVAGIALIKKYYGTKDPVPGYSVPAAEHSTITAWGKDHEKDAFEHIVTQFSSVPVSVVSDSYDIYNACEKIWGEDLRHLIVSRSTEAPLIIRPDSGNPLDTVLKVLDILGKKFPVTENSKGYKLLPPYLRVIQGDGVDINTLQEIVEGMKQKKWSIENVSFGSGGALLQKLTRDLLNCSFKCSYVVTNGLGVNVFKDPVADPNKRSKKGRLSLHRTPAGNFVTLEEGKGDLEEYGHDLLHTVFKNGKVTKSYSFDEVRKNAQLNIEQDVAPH

No constants are given. Whether binding was seen depends on the method and setting. Binding seen in cells or lysates may run through a third protein. Some results given as binding are weak or reduced against the parent protein; the word gives no strength. Where a sequence is shown, tags or fusion partners need not be part of it.

The experiment addresses T1, HA-tagged A1BG (UniProt P04217).
T1 sequence: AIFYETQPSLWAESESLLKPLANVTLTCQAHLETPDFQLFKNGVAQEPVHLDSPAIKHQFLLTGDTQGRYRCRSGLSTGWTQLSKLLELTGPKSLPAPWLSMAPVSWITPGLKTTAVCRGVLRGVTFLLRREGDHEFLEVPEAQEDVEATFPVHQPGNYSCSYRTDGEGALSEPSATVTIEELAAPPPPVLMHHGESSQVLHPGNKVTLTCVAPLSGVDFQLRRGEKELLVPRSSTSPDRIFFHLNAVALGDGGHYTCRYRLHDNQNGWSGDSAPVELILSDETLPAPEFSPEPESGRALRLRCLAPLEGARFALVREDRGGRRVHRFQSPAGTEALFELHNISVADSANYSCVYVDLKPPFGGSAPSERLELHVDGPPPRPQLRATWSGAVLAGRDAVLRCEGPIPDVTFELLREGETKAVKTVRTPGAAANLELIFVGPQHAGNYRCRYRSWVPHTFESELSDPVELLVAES
Nature of the experiment: co-IP; lysates of 1 × 10^7 MNNG, U2OS and K7M2 cells; IP antibody (anti-HA or anti-NAMPT) with Protein A/G beads; Western blot; IgG as negative control. In general terms: Immunoblotting shows a protein as a band on a membrane.

As for “nicotinamide phosphoribosyltransferase (NAMPT), human, endogenous (from UniProt P43490 1-491) (enzyme)”, the binding result is “binds”.
Turning to “nicotinamide phosphoribosyltransferase (NAMPT), mouse, endogenous (from UniProt Q99KQ4 1-491) (enzyme)”, the binding entry was “binds”.
